Assay [1] relates to Pseudomonas aeruginosa (P. aeruginosa—ATCC #15442). Description: Synergy test, microtiter plate high resolution MIC assay, bacterium. The following applies: ATCC15442, 48 h, read-out: Qb: end-point activity (MIC) of second component in the mixture (alone, QB, where Qa = 0). The class given is cell-based. An excerpt: (§1) One measure of synergism is the industrially accepted method described by Kull, F. C.; Eisman, P. C.; Sylwestrowicz, H. D. and Mayer, R. L., in Applied Microbiology 9:538-541 (1961), using the ratio determined by the formula: Qa/QA+Qb/QB=Synergy Index (“SI”) wherein: • QA=concentration of compound A (first component) in ppm, acting alone, which produced an end point (MIC of Compound A). • Qa=concentration of compound A in ppm, in the mixture, which produced an end point. • QB=concentration of compound B (second component) in ppm, acting alone, which produced an end point (MIC of Compound B). • Qb=concentration of compound B in ppm, in the mixture, which produced an end point. […]
(§2) Synergy tests were conducted using standard microtiter plate assays with media designed for optimal growth of the test microorganism. […] High resolution MICs were determined by adding varying amounts of microbicide to one column of a microtitre plate and doing subsequent ten-fold dilutions using an automated liquid handling system to obtain a series of endpoints ranging from 2 ppm to 10,000 ppm active ingredient. […]
(§3) For BIT combinations, the synergy of the combinations of the present invention was determined against a bacterium, Pseudomonas aeruginosa (P. aeruginosa—ATCC #15442), a yeast, Candida albicans (C. albicans—ATCC 10231), and a mold, Aspergillus niger (A. niger—ATCC 16404). […]

Assay [2] deals with Aspergillus niger (A. niger—ATCC 16404). Briefly: Synergy test, microtiter plate high resolution MIC assay, mold. The class given is cell-based. The following applies: ATCC16404, 96 h, read-out: Qb: end-point activity (MIC) of second component in the mixture (alone, QB, where Qa = 0).
Text: as §1, §2, §3

The structures appear in SMILES notation.

The MIC is the smallest concentration in the dilution series that meets the test's criterion for growth inhibition. `CC(C)(C)CC(C)(C)c1ccc(OCCOCC[N+](C)(C)Cc2ccccc2)cc1` [Benzethonium chloride]: the MIC was 40 µg/mL in assay [1] and 6 µg/mL in assay [2].

Values taken from patent US7468384B2, “Microbicidal composition” (Rohm and Haas Company, priority 2004, dated 2008).
